Laboratory results taken from patent US5312746.

Key:
[1] = test system: ClaI modification methylase (M.ClaI) (Caryophanon latum); assay: activity in cells; conditions: methylation protects resident plasmid and host chromosomal DNA from ClaI digestion; protein in cells; only the site is given
[2] = test system: ClaI restriction endonuclease (Caryophanon latum); assay: enzyme reaction in vitro; conditions: cell extract, lambda DNA, REact 1 buffer, 37 C 1 h; ClaI-size bands; both clones active; protein in a lysate after overexpression

Sequence | activity on this sequence [1] | activity on this sequence [2]
ATCGAT (double strand) [ClaI recognition site (in plasmid and E. coli host DNA)] | active | 
ATCGAT (double strand) [ClaI recognition site (in lambda DNA)] |  | active

Construct, isoform or probe ends are uncertain for at least one entry.
